PMC11467429
Results are given in words; binding and its absence hold for the method and conditions named. In cells and extracts the contact can be indirect. Some binding calls cover weakened binding; strength is not graded here. For some of these results: Tags and fused reporters may be left off the sequences shown. Blank lines part the entries; values can stand above or below the binder they belong to.

Columns and labels:
Flag-tagged MDA5 = biological target: T1, Flag-tagged MDA5 (UniProt Q9BYX4); assay: co-IP; HEK293T cells co-transfected with tagged plasmids, 18 h; lysed in IP buffer (20 mM Tris pH 7.5, 150 mM NaCl, 1% Triton X-100); IP with anti-Flag antibody (Fig. 2F also anti-myc), protein G magnetic beads, immunoblot
T1 sequence: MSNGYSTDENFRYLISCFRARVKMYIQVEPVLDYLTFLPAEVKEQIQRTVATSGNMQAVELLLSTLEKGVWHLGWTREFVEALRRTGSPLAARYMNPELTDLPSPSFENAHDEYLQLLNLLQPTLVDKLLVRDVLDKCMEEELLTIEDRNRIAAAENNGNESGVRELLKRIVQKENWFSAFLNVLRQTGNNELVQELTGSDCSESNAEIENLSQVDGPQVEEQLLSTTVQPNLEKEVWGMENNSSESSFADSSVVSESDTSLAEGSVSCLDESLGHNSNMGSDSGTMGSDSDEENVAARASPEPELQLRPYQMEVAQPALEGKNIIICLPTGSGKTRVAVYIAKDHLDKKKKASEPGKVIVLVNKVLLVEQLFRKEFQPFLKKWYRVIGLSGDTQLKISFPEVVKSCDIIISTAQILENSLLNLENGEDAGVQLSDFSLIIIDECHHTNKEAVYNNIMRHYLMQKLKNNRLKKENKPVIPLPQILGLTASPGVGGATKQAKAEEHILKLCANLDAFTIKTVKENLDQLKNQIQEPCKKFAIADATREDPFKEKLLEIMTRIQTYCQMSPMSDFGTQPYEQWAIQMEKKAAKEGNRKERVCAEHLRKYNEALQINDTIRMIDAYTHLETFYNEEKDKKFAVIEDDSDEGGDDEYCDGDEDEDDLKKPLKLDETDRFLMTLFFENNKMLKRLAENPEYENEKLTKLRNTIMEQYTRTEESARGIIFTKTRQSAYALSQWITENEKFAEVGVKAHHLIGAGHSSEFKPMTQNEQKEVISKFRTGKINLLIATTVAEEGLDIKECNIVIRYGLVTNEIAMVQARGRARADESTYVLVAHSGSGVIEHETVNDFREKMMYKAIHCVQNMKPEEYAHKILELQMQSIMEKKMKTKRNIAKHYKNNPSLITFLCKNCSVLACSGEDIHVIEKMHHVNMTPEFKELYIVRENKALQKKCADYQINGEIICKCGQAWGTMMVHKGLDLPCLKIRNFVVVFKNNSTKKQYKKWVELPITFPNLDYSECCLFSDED

[1] = biological target: T2, MDA5 (endogenous, A549) (human (endogenous in A549)) (UniProt Q9BYX4); assay: co-IP; endogenous proteins in A549 lysates, uninfected or infected with EMCV for indicated times; IP with anti-MDA5 antibody (Fig. 2G; antibody not named for Fig. 5D), immunoblot
T2 sequence: T1 sequence

binding (Flag-tagged MDA5): binds
B1: Myc-tagged RNF144B (protein, UniProt Q7Z419 1-303)
chain: MGSAGRLHYLAMTAENPTPGDLAPAPLITCKLCLCEQSLDKMTTLQECQCIFCTACLKQYMQLAIREGCGSPITCPDMVCLNHGTLQEAEIACLVPVDQFQLYQRLKFEREVHLDPYRTWCPVADCQTVCPVASSDPGQPVLVECPSCHLKFCSCCKDAWHAEVSCRDSQPIVLPTEHRALFGTDAEAPIKQCPVCRVYIERNEGCAQMMCKNCKHTFCWYCLQNLDNDIFLRHYDKGPCRNKLGHSRASVMWNRTQVVGILVGLGIIALVTSPLLLLASPCIICCVCKSCRGKKKKHDPSTT

binding [1]: binds
B2: RNF144B (endogenous, A549) (protein, UniProt Q7Z419 1-303)
chain: B1 chain

binding [1]: binds
B3: CCDC50 (endogenous, A549) (protein, UniProt Q8IVM0 1-306)
chain: MAEVSIDQSKLPGVKEVCRDFAVLEDHTLAHSLQEQEIEHHLASNVQRNRLVQHDLQVAKQLQEEDLKAQAQLQKRYKDLEQQDCEIAQEIQEKLAIEAERRRIQEKKDEDIARLLQEKELQEEKKRKKHFPEFPATRAYADSYYYEDGGMKPRVMKEAVSTPSRMAHRDQEWYDAEIARKLQEEELLATQVDMRAAQVAQDEEIARLLMAEEKKAYKKAKEREKSSLDKRKQDPEWKPKTAKAANSKSKESDEPHHSKNERPARPPPPIMTDGEDADYTHFTNQQSSTRHFSKSESSHKGFHYKH

binding (Flag-tagged MDA5): binds
B4: CCDC50 (protein, UniProt Q8IVM0 1-306)
chain: B3 chain
